The list shows a part of the results.
Key:
Assay in all cases: log2 fold change, soluble protein after heating vs DMSO (PISA); higher = thermal stabilisation; K562 cells, 10 uM, 30 min; active = over 0.2 and 3.5 SD of the protein, either way, in both replicates (recomputed)
[1] = compound: Cc1ccc(NC(=O)c2ccc(CN3CC[C@H](N(C)C)C3)c(C(F)(F)F)c2)cc1Nc1nccc(-c2cncnc2)n1 [bafetinib]
Method in brief: (§1)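 K562 cells (2×10^6 cells/mL) were treated with 10 μM compound for 30 min, and aliquots were heated for 3 min over 48°C-58°C. Pooled aliquots were extracted in PBS with 0.5% NP-40 at 4°C, and the supernatant after 21,000xg for 90 min was measured by TMTpro 16plex LC-MS/MS with channel sums equalised. Reported thermal stability, relative to control samples and from duplicates, is a log2 fold change.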

The chains behind the UniProt entries cited, without tags or fusion partners. Where a name states a change or a piece, a line headed by the entry shows the natural chain unless it says otherwise.
UniProt Q9C004: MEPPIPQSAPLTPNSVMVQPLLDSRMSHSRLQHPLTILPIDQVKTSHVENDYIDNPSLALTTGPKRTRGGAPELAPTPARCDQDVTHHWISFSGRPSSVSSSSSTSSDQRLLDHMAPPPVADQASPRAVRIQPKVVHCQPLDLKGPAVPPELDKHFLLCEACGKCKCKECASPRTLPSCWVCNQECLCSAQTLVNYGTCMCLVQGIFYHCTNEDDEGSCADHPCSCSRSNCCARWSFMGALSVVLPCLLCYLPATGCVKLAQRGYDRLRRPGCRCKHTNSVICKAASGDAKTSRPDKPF
UniProt Q96T58, whole entry, looked up: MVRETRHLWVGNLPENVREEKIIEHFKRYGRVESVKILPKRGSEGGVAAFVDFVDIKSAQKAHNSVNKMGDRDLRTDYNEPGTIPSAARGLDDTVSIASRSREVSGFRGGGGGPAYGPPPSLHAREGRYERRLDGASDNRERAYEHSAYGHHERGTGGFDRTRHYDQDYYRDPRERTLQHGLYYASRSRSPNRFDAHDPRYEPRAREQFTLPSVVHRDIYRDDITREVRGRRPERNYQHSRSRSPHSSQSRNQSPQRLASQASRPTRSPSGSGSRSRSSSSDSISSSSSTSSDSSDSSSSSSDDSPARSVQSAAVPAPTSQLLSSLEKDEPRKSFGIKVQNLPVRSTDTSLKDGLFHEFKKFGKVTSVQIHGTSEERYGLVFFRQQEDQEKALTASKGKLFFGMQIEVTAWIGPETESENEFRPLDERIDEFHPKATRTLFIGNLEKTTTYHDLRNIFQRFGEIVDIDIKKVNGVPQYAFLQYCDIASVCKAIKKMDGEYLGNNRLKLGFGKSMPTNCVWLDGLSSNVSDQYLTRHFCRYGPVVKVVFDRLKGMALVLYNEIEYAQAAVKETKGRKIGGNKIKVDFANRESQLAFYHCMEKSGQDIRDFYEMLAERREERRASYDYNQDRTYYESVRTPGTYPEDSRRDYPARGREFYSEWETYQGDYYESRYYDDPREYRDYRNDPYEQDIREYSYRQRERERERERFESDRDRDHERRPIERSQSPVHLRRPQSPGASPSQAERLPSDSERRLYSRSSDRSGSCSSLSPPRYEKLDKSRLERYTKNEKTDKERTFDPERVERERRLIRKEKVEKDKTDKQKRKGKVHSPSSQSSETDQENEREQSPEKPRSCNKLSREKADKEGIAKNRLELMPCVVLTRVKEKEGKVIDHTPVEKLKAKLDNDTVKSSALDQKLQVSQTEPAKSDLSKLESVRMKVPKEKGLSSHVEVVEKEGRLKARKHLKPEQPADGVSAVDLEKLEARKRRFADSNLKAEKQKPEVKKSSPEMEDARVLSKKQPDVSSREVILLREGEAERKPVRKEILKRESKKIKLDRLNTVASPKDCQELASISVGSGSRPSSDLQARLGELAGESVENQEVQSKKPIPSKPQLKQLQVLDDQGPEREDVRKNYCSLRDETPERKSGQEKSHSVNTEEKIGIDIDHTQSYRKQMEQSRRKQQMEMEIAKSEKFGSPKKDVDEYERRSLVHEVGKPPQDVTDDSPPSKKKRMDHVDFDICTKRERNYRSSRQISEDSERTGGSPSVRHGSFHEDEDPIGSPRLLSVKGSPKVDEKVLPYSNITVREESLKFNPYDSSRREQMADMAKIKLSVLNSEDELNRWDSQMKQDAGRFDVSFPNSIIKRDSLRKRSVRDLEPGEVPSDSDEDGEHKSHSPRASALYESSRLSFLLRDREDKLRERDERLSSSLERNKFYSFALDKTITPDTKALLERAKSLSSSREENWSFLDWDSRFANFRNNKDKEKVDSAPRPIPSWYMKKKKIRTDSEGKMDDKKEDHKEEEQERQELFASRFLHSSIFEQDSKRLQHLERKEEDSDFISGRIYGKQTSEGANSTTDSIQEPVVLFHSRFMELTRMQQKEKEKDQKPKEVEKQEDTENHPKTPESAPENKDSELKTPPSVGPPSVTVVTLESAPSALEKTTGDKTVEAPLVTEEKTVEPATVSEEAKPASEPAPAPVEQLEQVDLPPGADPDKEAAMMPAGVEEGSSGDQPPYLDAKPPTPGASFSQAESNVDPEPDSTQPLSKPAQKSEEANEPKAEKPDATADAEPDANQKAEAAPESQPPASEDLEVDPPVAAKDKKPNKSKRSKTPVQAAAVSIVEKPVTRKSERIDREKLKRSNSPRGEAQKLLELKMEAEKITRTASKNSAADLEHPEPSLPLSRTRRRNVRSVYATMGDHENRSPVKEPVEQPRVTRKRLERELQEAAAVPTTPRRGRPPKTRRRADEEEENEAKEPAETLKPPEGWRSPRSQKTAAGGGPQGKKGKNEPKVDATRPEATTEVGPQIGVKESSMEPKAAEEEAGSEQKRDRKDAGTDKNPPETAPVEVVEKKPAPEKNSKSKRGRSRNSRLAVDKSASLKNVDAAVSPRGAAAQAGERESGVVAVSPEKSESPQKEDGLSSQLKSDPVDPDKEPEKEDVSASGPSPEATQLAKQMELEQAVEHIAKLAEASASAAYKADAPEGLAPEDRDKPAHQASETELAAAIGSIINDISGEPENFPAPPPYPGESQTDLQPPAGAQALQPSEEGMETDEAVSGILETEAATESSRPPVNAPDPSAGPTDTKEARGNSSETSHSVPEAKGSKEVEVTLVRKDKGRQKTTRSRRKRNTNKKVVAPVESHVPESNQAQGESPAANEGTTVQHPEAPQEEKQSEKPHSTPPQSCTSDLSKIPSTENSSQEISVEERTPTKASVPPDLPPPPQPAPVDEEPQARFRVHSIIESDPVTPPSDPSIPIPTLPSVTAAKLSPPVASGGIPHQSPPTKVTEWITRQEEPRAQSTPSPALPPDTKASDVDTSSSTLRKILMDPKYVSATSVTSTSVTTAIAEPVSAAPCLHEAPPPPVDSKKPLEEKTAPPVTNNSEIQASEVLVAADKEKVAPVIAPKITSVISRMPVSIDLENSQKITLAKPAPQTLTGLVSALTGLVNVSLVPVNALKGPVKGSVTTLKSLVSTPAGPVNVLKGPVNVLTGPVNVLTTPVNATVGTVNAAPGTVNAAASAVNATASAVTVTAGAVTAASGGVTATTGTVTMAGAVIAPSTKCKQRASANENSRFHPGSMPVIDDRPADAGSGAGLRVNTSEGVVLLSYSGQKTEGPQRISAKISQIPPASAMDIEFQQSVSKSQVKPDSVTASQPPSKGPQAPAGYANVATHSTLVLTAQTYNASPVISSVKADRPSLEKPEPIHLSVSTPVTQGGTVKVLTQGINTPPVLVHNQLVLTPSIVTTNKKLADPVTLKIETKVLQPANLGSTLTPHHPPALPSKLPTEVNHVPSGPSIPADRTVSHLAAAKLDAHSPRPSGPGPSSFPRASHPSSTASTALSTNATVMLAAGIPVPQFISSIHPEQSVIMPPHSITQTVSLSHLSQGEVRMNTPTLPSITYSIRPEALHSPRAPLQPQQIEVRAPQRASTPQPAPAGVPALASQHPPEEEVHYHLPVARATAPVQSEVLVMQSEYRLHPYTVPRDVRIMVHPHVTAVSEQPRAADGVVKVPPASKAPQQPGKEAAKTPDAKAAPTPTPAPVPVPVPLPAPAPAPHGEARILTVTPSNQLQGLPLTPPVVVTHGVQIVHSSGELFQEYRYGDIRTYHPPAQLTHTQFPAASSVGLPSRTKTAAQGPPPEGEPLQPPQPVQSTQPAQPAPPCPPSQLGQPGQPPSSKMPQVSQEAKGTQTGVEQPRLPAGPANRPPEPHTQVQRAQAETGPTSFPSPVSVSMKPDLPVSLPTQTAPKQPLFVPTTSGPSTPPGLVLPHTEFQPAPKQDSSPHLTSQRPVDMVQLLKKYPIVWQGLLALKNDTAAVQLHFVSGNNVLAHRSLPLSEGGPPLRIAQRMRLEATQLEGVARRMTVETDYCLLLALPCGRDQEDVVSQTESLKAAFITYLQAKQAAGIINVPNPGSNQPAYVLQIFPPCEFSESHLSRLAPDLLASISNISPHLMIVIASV
UniProt Q01082, whole entry, looked up: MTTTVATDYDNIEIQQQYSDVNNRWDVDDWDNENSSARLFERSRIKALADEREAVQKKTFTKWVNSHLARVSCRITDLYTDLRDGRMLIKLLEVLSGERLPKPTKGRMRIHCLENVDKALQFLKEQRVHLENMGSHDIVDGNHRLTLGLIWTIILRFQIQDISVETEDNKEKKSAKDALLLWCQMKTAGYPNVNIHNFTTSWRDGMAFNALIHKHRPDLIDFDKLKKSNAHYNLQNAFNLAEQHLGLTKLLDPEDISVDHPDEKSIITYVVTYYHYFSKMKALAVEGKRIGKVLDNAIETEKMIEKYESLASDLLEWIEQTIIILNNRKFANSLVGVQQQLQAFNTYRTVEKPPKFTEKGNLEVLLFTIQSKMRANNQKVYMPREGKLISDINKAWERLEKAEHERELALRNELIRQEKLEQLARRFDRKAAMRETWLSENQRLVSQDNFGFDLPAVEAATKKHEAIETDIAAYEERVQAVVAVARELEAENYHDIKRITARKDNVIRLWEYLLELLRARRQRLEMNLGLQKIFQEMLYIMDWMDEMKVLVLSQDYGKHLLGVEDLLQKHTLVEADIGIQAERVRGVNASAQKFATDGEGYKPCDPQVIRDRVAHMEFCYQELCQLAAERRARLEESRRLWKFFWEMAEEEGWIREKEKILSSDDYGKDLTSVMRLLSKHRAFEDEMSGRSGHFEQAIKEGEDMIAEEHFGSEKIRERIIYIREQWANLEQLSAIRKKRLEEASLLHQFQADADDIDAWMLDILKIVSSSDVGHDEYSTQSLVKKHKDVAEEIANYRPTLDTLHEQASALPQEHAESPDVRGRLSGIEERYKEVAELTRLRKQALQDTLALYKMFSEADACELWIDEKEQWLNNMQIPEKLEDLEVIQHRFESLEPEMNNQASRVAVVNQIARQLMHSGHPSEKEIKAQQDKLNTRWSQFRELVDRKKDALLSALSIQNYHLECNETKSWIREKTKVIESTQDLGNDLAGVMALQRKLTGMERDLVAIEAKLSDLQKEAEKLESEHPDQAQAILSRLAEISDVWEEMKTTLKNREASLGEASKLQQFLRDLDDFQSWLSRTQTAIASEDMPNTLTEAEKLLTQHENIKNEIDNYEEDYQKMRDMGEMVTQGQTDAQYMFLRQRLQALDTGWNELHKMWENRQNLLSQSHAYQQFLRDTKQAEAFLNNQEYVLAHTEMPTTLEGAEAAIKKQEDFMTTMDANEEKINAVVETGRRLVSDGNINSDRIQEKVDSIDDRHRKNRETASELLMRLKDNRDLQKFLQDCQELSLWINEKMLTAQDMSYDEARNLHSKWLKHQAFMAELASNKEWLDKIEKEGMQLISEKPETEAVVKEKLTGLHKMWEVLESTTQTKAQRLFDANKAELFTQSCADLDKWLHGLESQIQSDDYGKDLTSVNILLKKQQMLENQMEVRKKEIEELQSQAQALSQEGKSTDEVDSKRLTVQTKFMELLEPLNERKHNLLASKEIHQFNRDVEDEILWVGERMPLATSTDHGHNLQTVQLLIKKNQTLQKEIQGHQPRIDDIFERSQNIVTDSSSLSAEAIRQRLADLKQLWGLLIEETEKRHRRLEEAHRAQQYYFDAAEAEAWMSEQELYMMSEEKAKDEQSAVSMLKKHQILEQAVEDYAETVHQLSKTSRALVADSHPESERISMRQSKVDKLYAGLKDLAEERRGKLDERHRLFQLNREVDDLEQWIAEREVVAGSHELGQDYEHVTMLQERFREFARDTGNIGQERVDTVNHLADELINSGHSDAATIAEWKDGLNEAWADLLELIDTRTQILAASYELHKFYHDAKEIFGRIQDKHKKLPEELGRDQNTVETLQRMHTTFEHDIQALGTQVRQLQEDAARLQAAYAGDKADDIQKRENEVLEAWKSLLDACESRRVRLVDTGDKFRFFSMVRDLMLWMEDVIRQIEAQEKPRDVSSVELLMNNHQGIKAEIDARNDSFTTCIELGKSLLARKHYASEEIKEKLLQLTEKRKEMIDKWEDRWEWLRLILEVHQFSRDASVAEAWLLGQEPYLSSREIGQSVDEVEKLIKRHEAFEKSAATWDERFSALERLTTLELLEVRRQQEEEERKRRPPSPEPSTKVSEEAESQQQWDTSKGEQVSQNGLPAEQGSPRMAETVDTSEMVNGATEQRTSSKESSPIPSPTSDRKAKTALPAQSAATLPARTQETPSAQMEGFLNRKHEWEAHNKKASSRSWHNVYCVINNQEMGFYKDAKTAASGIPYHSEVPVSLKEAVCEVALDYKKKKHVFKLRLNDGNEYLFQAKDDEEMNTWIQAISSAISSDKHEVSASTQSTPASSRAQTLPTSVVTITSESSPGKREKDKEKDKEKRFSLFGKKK
UniProt O43805: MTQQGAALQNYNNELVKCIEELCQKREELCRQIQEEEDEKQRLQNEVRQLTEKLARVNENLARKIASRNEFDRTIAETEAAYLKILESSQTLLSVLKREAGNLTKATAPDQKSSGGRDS
UniProt P09132: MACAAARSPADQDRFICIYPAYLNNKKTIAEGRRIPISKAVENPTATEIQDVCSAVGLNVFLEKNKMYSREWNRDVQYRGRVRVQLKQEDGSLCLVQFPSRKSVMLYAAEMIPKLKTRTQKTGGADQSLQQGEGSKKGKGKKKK

[2] = compound: Cc1cccc(CC(=O)N2CCc3c2ccc(-c2cn(C)c4ncnc(N)c24)c3F)n1
Method in brief: as §1

[3] = compound: Cc1cn(-c2cc(NC(=O)c3ccc(C)c(Nc4nccc(-c5cccnc5)n4)c3)cc(C(F)(F)F)c2)cn1 [nilotinib]
Method in brief: as §1

[4] = compound: Cc1nc(Nc2n[nH]c3c2CN(C(=O)N[C@H](CN(C)C)c2ccccc2)C3(C)C)c2sccc2n1
Method in brief: as §1

[5] = compound: Cc1nc(Nc2ncc(C(=O)Nc3c(C)cccc3Cl)s2)cc(N2CCN(CCO)CC2)n1 [dasatinib]
Method in brief: as §1

[6] = compound: Cc1ncc(-c2ccnc(Nc3ccc(S(C)(=O)=O)cc3)n2)n1C(C)C
Method in brief: as §1

[7] = compound: Cn1cc(-c2ccc3c(c2)CCN3C(=O)Cc2cccc(C(F)(F)F)c2)c2c(N)ncnc21
Method in brief: as §1

[8] = compound: Cn1cc(-c2ccc3nnc(C(F)(F)c4ccc5ncccc5c4)n3n2)cn1
Method in brief: as §1

[9] = compound: Cn1cncc1[C@@](N)(c1ccc(Cl)cc1)c1ccc2c(c1)c(-c1cccc(Cl)c1)cc(=O)n2C [tipifarnib]
Method in brief: as §1

[10] = compound: FC(F)(F)c1ccc(/C=C/c2nc(COc3ccc(CCCCn4ccnn4)cc3)co2)cc1 [mubritinib]
Method in brief: as §1

| Target | log2 fold change [1] | log2 fold change [2] | log2 fold change [3] | log2 fold change [4] | log2 fold change [5] | log2 fold change [6] | log2 fold change [7] | log2 fold change [8] | log2 fold change [9] | log2 fold change [10] |
| --- | --- | --- | --- | --- | --- | --- | --- | --- | --- | --- |
| SPRY4 (UniProt Q9C004) | inactive: 0.054 | inactive: -0.005 | inactive: 0.053 | inactive: -0.06 | inactive: 0.018 | inactive: 0.023 | inactive: 0.014 | inactive: 0 | inactive: 0.03 | inactive: 0.014 |
| SPEN (UniProt Q96T58) | inactive: -0.055 | inactive: -0.004 | inactive: -0.022 | inactive: -0.137 | inactive: 0.009 | inactive: -0.036 | inactive: 0.12 | inactive: 0.012 | inactive: 0.06 | inactive: -0.043 |
| SPTBN1 (UniProt Q01082) | inactive: 0.064 | inactive: -0.017 | inactive: -0.01 | inactive: -0.145 | inactive: -0.043 | inactive: 0.054 | inactive: -0.009 | inactive: -0.007 | inactive: -0.045 | inactive: -0.075 |
| STARD7 (UniProt Q9NQZ5) | inactive: -0.043 | inactive: 0.109 | inactive: -0.057 | inactive: 0.081 | inactive: -0.035 | inactive: 0.094 | inactive: 0.021 | inactive: -0.007 | inactive: -0.026 | inactive: 0.032 |
| STARD3NL (UniProt O95772) | inactive: 0.011 | inactive: -0.008 | inactive: -0.007 | inactive: 0.027 | inactive: 0.075 | inactive: -0.001 | inactive: -0.048 | inactive: 0.025 | inactive: -0.064 | inactive: -0.006 |
| SSNA1 (UniProt O43805) | inactive: -0.013 | inactive: -0.137 | inactive: -0.009 | inactive: 0.007 | inactive: 0.04 | inactive: -0.003 | inactive: 0.037 | inactive: -0.033 | inactive: -0.054 | inactive: 0.065 |
| SRP68 (UniProt Q9UHB9) | inactive: 0.043 | inactive: 0.054 | inactive: -0.118 | inactive: -0.063 | inactive: -0.098 | inactive: 0.055 | inactive: -0.026 | inactive: -0.08 | inactive: -0.119 | inactive: 0.012 |
| SPIN1 (UniProt Q9Y657) | inactive: -0.075 | inactive: 0.029 | inactive: 0.023 | inactive: -0.03 | inactive: 0.036 | inactive: 0.047 | inactive: -0.056 | inactive: -0.183 | inactive: -0.01 | inactive: 0.001 |
| SRP19 (UniProt P09132) | inactive: -0.059 | inactive: -0.061 | inactive: 0.071 | inactive: 0.008 | inactive: -0.061 | inactive: 0.041 | inactive: -0.13 | inactive: -0.083 | inactive: -0.106 | inactive: 0.017 |
| SRPK1 (UniProt Q96SB4) | inactive: 0.24 | inactive: 0 | inactive: -0.02 | inactive: 0.702 | inactive: 0.078 | inactive: 0.001 | inactive: -0.301 | inactive: -0.156 | inactive: 0.144 | inactive: -0.121 |
| SPC25 (UniProt Q9HBM1) | inactive: -0.011 | inactive: 0 | inactive: -0.063 | inactive: -0.006 | inactive: -0.024 | inactive: 0.022 | inactive: 0.021 | inactive: -0.047 | inactive: -0.008 | inactive: -0.013 |
| SRSF2 (UniProt Q01130) | inactive: 0.02 | inactive: -0.062 | inactive: 0.007 | active: -0.541 | inactive: 0.074 | inactive: 0.034 | inactive: -0.058 | inactive: 0 | inactive: 0.085 | inactive: -0.011 |
| SPATA33 isoform 2 (UniProt Q96N06) | inactive: 0.059 | inactive: -0.029 | inactive: -0.065 | inactive: -0.279 | inactive: -0.003 | inactive: -0.004 | inactive: 0.035 | inactive: 0.093 | inactive: -0.074 | – |
| SQSTM1 (UniProt Q13501) | inactive: -0.138 | inactive: 0.056 | inactive: 0.042 | inactive: -0.227 | inactive: -0.006 | inactive: 0.172 | inactive: 0.001 | inactive: 0.022 | inactive: 0.186 | inactive: 0.034 |
| SRP72 (UniProt O76094) | inactive: 0.05 | inactive: 0.048 | inactive: -0.117 | inactive: -0.03 | inactive: -0.186 | inactive: 0.108 | inactive: -0.052 | inactive: -0.052 | inactive: -0.148 | inactive: -0.036 |

Full records from above. Values in the order: log2 fold change [1] | log2 fold change [2] | log2 fold change [3] | log2 fold change [4] | log2 fold change [5] | log2 fold change [6] | log2 fold change [7] | log2 fold change [8] | log2 fold change [9] | log2 fold change [10]
SQSTM1 (UniProt Q13501) is listed with inactive: -0.138 | inactive: 0.056 | inactive: 0.042 | inactive: -0.227 | inactive: -0.006 | inactive: 0.172 | inactive: 0.001 | inactive: 0.022 | inactive: 0.186 | inactive: 0.034
STARD7 (UniProt Q9NQZ5) is listed with inactive: -0.043 | inactive: 0.109 | inactive: -0.057 | inactive: 0.081 | inactive: -0.035 | inactive: 0.094 | inactive: 0.021 | inactive: -0.007 | inactive: -0.026 | inactive: 0.032
